Results on 1 substance are retold here after paper PMC5550728.

Sequences of proteins named here, by UniProt entry; tags and fusion partners are left off. Residues count along the entry.
UniProt O15537: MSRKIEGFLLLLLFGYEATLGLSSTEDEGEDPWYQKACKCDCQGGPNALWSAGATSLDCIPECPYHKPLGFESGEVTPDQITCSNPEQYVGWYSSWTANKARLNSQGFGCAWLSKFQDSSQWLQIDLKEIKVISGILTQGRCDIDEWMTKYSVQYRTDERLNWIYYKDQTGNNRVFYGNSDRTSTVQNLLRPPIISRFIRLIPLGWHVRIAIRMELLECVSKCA
UniProt O60840, residues 1-500: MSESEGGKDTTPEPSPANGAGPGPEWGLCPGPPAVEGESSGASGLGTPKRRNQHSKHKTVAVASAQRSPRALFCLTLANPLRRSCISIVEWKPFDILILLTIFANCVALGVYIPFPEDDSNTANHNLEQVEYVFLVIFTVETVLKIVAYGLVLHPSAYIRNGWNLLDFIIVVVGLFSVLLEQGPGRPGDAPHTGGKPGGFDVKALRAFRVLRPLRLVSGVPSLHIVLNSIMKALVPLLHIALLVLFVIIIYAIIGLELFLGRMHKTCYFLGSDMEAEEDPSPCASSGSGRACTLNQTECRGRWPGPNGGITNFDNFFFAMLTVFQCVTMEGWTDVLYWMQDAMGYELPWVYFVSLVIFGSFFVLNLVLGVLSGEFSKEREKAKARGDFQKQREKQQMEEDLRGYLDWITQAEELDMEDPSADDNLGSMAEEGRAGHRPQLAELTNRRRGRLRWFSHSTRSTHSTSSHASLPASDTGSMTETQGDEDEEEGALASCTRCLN

For this assay, the target named is human full-length RS1 fused to the GAL4 DNA binding domain (pBind-RS1) (human) (UniProt O15537). The experiment in a line: two-hybrid; mammalian two-hybrid (luciferase reporter) in Cos1 cells: pBind-RS1 (GAL4 DNA binding domain, bait), pACT-Cav1.4-N terminal (VP16 activation domain), pG5Luc, 100 ng each; controls with empty pBind or pACT; n = 6. On the technique in general: A reporter such as luciferase makes a cellular process visible.

No constants are given. Whether binding was seen depends on the method and setting. Some results given as binding are weak or reduced against the parent protein; the word gives no strength.

Regarding “human Cav1.4 N-terminal fragment fused to the VP16 activation domain (pACT-Cav1.4-N terminal) (from UniProt O60840 1-500) (domain or fragment)”, the binding result is “binds”.
